Laboratory results from patent US20260083687A1, “COMPOUNDS FOR REDUCING LACTATION AND IMPROVING HEALTH” (AHV International B.V., priority 2022, published 2026).
Several values for one entry are separate records, joined by “and”; a condition that tells them apart may be missing. Identical values can stand only once. The name of at least one read-out is uncertain.

Test system: cows (Holstein Friesians)
Assay: Treatment with DPD analogs (organosulfur compounds) and milk yield (Example 8)
Format: in vivo, cow
Conditions: for % reduction after 24 h average (milk yield): 24 h after one oral gel capsule; for % reduction after 24 h average (milk yield) / % reduction after 48 h average (milk yield) / % reduction after 72 h average (milk yield) / % reduction after 96 h average (milk yield) / average reduction after 24, 48 and 72 h (%) (milk yield) / Average reduction after 24 and 48 h (%) (milk yield): dose equimolar to 80 ml di-n-propyl disulfide; for % reduction after 24 h average (milk yield) / % reduction after 48 h average (milk yield) / % reduction after 72 h average (milk yield) / % reduction after 96 h average (milk yield): negative value = increase in yield; for % reduction after 48 h average (milk yield): 48 h after one oral gel capsule; for % reduction after 72 h average (milk yield): 72 h after one oral gel capsule; for % reduction after 96 h average (milk yield): 96 h after one oral gel capsule; for average reduction after 24, 48 and 72 h (%) (milk yield): average of 24, 48 and 72 h after one oral gel capsule; for Average reduction after 24 and 48 h (%) (milk yield): average of 24 and 48 h after one oral gel capsule; for Average reduction after 24 and 48 h (%) / Milk yield (kg) After 24 h / Milk yield (kg) After 48 h / Milk yield (kg) After 72 h / Milk yield (kg) After 96 h / average reduction after 24, 48 and 72 h (%) / % reduction after 24 h / % reduction after 48 h / % reduction after 72 h / % reduction after 96 h: individual cows, dose per compound as listed in E284; for % reduction after 24 h / % reduction after 48 h / % reduction after 72 h / % reduction after 96 h: vs milk yield before treatment
Procedure: Study design. 36 cows (Holstein Friesians) from 2 farms were used. The feed of the cows was composed of TMR, including corn and grass silage, supplemented with soya and minerals. […] The cows were milked in a milk robot. […] The cows were milked twice a day. The cows were housed in free stables. […] Placebo treatment corresponded to administration of two gel capsules containing 180 ml water.
For this study dosages synthetic compounds (>96% purity) as indicated in table 17 were administered to cows. The objective of this study was to compare the activity of a corresponding dose of the compounds expressed in mol, based on the number of moles that is present in 80 ml di-n-propyl disulfide at 20° C. The number of moles was converted to ml or grams of the tested compounds. For this purpose, the molecular weight and specific density were used in the calculations. The compounds were formulated in the gel capsules as indicated in the previous examples.
Before the various dosages were administered, the milk yields were monitored for at least 5 days.

| Structure (SMILES) | % reduction after 24 h average (milk yield) [%] | % reduction after 48 h average (milk yield) [%] | % reduction after 72 h average (milk yield) [%] | % reduction after 96 h average (milk yield) [%] | average reduction after 24, 48 and 72 h (%) (milk yield) | Average reduction after 24 and 48 h (%) (milk yield) | Average reduction after 24 and 48 h (%) | Milk yield (kg) After 24 h | Milk yield (kg) After 48 h | Milk yield (kg) After 72 h | Milk yield (kg) After 96 h | average reduction after 24, 48 and 72 h (%) | % reduction after 24 h | % reduction after 48 h | % reduction after 72 h | % reduction after 96 h |
| --- | --- | --- | --- | --- | --- | --- | --- | --- | --- | --- | --- | --- | --- | --- | --- | --- |
| CCSSCC [Diethyl disulfide, di-ethyl disulfide] | 15 | 15 | 11 | 14 | 14 | 14 | 15.5% and 13.5% | 18.3 kg and 25.5 kg | 17.7 kg and 26.4 kg | 19.1 kg and 26.7 kg | 17.9 kg and 26.7 kg | 14% and 13% | 14% and 15% | 17% and 12% | 10% and 11% | 16% and 11% |
| CCSCC [Diethyl sulfide, di-ethyl sulfide] | 14 | −2.5 | −1 | 2.5 | 1.8 | 3.3 | 6.5% and 0% | 16.3 kg and 19.3 kg | 23.2 kg and 17.3 kg | 21.9 kg and 18 kg | 21.3 kg and 17.4 kg | 3% and 0.7% | 23% and −5% | −10% and 5% | −4% and 2% | 0% and 5% |
| c1ccc(CSSCc2ccccc2)cc1 [Dibenzyl disulfide, di-benzyl disulfide] | 30 | 29 | 25.5 | 13 | 28.2 | 29.5 | 26% and 33% | 19.3 kg and 16.9 kg | 19.4 kg and 17.6 kg | 20.2 kg and 18.4 kg | 24.9 kg and 20.1 kg | 25% and 31.4% | 26% and 34% | 26% and 32% | 23% and 28% | 5% and 21% |
